This is one part of the list.
Legend:
Assay in all cases: log2 fold change, soluble protein after heating vs DMSO (PISA); higher = thermal stabilisation; K562 cells, 10 uM, 30 min; active = over 0.2 and 3.5 SD of the protein, either way, in both replicates (recomputed)
bafetinib = compound: Cc1ccc(NC(=O)c2ccc(CN3CC[C@H](N(C)C)C3)c(C(F)(F)F)c2)cc1Nc1nccc(-c2cncnc2)n1 [bafetinib]
Method in brief: (§1)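 K562 cells (2×10^6 cells/mL) were treated with 10 μM compound for 30 min, and aliquots were heated for 3 min over 48°C-58°C. Pooled aliquots were extracted in PBS with 0.5% NP-40 at 4°C, and the supernatant after 21,000xg for 90 min was measured by TMTpro 16plex LC-MS/MS with channel sums equalised. Reported thermal stability, relative to control samples and from duplicates, is a log2 fold change.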

By UniProt entry, the sequences of proteins in these tests, tags left out. Where a name states a change or a piece, a line headed by the entry shows the natural chain unless it says otherwise.
UniProt Q9Y3P9: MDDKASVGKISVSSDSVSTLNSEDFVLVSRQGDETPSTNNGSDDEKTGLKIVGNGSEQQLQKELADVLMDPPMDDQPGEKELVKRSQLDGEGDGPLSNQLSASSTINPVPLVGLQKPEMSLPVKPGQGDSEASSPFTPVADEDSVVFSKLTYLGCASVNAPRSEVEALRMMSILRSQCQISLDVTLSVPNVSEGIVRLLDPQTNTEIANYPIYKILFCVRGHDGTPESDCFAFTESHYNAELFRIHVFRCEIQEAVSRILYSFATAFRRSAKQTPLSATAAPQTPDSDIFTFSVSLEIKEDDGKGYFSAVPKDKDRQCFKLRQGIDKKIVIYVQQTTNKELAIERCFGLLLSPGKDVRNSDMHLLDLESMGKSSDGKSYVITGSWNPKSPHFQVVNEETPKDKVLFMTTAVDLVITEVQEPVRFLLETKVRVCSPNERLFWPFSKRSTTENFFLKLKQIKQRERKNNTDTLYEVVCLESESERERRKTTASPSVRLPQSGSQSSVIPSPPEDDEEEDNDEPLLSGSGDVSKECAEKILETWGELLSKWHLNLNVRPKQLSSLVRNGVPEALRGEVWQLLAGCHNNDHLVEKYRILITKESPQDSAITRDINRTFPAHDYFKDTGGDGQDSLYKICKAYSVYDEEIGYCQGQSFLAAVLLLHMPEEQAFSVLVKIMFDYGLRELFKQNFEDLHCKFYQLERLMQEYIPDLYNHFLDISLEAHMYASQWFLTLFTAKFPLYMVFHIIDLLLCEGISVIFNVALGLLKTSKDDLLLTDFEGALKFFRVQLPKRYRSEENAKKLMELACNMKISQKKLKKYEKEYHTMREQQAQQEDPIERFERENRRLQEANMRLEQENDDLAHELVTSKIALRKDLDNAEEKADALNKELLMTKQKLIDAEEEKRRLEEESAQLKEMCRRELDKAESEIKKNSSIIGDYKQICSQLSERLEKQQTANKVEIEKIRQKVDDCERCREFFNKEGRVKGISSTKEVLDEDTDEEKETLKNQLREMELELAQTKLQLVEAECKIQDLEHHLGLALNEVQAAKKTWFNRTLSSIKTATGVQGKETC
UniProt P06400: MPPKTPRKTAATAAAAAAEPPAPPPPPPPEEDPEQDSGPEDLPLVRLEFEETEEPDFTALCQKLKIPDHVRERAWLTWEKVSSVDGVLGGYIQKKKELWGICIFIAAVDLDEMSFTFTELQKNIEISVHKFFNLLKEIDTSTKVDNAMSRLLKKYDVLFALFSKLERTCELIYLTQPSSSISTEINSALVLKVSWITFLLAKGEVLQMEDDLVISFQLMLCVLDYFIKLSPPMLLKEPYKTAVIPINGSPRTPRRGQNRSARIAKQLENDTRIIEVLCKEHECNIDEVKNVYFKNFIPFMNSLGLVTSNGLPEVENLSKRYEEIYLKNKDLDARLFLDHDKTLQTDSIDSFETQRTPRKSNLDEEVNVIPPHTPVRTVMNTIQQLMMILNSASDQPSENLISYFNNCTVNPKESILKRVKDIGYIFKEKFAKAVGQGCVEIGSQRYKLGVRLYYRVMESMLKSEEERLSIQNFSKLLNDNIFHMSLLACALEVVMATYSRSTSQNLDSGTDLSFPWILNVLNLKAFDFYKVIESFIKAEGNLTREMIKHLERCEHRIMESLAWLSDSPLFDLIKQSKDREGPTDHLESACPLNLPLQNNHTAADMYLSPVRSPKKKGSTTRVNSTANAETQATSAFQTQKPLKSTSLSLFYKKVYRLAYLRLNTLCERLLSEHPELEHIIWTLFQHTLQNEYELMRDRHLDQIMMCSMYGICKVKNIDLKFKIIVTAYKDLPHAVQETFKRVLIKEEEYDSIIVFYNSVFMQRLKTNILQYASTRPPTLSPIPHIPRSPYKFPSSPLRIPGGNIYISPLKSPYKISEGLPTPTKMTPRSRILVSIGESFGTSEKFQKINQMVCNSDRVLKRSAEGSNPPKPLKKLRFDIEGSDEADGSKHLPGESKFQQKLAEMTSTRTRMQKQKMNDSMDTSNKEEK
UniProt Q9H0U4: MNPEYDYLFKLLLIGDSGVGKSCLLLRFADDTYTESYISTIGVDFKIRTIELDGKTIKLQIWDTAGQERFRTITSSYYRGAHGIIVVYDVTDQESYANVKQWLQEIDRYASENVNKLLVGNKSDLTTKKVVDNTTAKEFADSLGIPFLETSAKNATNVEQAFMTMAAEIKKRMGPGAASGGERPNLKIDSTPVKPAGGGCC
UniProt O95716: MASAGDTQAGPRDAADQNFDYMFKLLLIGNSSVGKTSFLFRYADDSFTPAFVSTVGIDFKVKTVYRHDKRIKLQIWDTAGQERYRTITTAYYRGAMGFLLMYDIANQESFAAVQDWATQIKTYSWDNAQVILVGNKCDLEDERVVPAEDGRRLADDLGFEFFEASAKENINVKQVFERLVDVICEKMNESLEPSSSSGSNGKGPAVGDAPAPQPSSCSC
UniProt O75771: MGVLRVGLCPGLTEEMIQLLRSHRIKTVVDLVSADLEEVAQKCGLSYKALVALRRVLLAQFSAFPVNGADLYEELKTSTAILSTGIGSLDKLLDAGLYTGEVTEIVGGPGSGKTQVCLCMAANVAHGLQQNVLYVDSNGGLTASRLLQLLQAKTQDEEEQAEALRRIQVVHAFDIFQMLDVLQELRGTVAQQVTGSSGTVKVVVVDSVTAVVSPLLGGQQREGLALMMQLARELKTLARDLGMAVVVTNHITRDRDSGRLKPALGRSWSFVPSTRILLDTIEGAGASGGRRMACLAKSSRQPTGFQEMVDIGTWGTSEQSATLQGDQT
UniProt P47736: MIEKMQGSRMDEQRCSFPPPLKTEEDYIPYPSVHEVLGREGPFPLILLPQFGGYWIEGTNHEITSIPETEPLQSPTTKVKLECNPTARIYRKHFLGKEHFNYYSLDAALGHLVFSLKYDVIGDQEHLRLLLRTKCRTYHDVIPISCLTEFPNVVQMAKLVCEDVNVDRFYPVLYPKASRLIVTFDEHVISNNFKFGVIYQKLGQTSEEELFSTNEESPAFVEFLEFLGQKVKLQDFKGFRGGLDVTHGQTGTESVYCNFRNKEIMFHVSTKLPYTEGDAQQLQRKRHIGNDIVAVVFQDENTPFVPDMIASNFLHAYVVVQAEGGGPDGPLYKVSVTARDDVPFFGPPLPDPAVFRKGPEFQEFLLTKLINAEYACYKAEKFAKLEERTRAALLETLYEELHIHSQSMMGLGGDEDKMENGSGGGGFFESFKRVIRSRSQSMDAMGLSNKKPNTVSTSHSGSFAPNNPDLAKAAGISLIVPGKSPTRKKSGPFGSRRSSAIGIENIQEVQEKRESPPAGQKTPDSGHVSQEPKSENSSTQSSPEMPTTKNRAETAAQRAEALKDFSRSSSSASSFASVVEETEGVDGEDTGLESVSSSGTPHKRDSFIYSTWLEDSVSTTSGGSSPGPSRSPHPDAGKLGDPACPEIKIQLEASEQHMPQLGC
UniProt Q15771: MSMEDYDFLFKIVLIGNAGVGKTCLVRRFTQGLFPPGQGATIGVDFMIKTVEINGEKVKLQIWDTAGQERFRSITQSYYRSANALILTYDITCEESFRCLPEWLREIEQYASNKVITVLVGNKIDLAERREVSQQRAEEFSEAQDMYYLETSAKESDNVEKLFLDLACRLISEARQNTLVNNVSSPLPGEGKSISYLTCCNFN
UniProt Q9UI14, whole entry, looked up: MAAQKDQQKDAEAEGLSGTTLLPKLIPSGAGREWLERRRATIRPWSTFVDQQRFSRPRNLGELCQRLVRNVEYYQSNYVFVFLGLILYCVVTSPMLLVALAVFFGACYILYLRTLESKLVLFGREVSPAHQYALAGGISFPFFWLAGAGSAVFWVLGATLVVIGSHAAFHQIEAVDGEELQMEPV

[1] = compound: Cc1cccc(CC(=O)N2CCc3c2ccc(-c2cn(C)c4ncnc(N)c24)c3F)n1
Method in brief: as §1

nilotinib = compound: Cc1cn(-c2cc(NC(=O)c3ccc(C)c(Nc4nccc(-c5cccnc5)n4)c3)cc(C(F)(F)F)c2)cn1 [nilotinib]
Method in brief: as §1

[2] = compound: Cc1nc(Nc2n[nH]c3c2CN(C(=O)N[C@H](CN(C)C)c2ccccc2)C3(C)C)c2sccc2n1
Method in brief: as §1

dasatinib = compound: Cc1nc(Nc2ncc(C(=O)Nc3c(C)cccc3Cl)s2)cc(N2CCN(CCO)CC2)n1 [dasatinib]
Method in brief: as §1

[3] = compound: Cc1ncc(-c2ccnc(Nc3ccc(S(C)(=O)=O)cc3)n2)n1C(C)C
Method in brief: as §1

[4] = compound: Cn1cc(-c2ccc3c(c2)CCN3C(=O)Cc2cccc(C(F)(F)F)c2)c2c(N)ncnc21
Method in brief: as §1

[5] = compound: Cn1cc(-c2ccc3nnc(C(F)(F)c4ccc5ncccc5c4)n3n2)cn1
Method in brief: as §1

tipifarnib = compound: Cn1cncc1[C@@](N)(c1ccc(Cl)cc1)c1ccc2c(c1)c(-c1cccc(Cl)c1)cc(=O)n2C [tipifarnib]
Method in brief: as §1

mubritinib = compound: FC(F)(F)c1ccc(/C=C/c2nc(COc3ccc(CCCCn4ccnn4)cc3)co2)cc1 [mubritinib]
Method in brief: as §1

[6] = compound: NC(=O)Nc1cc(-c2cccc(F)c2)sc1C(=O)N[C@H]1CCCNC1
Method in brief: as §1

[7] = compound: NC(=O)c1cnc(N[C@@H]2CCCC[C@@H]2N)nc1Nc1cccc(-n2nccn2)c1
Method in brief: as §1

[8] = compound: NC1(c2ccc(-c3nc4ccn5c(=O)[nH]nc5c4cc3-c3ccccc3)cc2)CCC1
Method in brief: as §1

[9] = compound: NCC(=O)Nc1ccc(-n2nc(C(F)(F)F)cc2-c2ccc3c(ccc4ccccc43)c2)cc1
Method in brief: as §1

entinostat = compound: Nc1ccccc1NC(=O)c1ccc(CNC(=O)OCc2cccnc2)cc1 [entinostat]
Method in brief: as §1

vorinostat = compound: O=C(CCCCCCC(=O)Nc1ccccc1)NO [vorinostat]
Method in brief: as §1

citarinostat = compound: O=C(CCCCCCNC(=O)c1cnc(N(c2ccccc2)c2ccccc2Cl)nc1)NO [citarinostat]
Method in brief: as §1

silmitasertib = compound: O=C(O)c1ccc2c(c1)nc(Nc1cccc(Cl)c1)c1ccncc12 [silmitasertib]
Method in brief: as §1

[10] = compound: O=C1NC(=O)C(c2cnc3ccccn23)=C1c1cn2c3c(cc(F)cc13)CN(C(=O)N1CCCCC1)CC2
Method in brief: as §1

[11] = compound: c1cc(OCCN2CCCCC2)cc(-c2n[nH]c3ccc(-c4nnc[nH]4)cc23)c1
Method in brief: as §1

Measured: log2 fold change

RABGAP1 (UniProt Q9Y3P9)
inactive: bafetinib -0.036 | [1] 0.036 | nilotinib -0.017 | [2] -0.056 | dasatinib -0.027 | [3] 0.006 | [4] -0.006 | [5] -0.003 | tipifarnib 0.01 | mubritinib 0.018 | [6] 0.014 | [7] -0.013 | [8] -0.081 | [9] -0.014 | entinostat -0.005 | vorinostat 0.018 | citarinostat 0.012 | silmitasertib 0.089 | [10] -0.022 | [11] -0.07

RAVER1 (UniProt E9PAU2)
inactive: bafetinib -0.155 | [1] 0 | nilotinib -0.091 | [2] -0.319 | dasatinib -0.309 | [3] -0.299 | [4] 0.155 | [5] 0.011 | tipifarnib -0.351 | mubritinib 0.134 | [6] -0.063 | [7] -0.35 | [8] -0.1 | [9] -0.32 | entinostat 0.211 | vorinostat 0.207 | citarinostat 0.166 | silmitasertib -0.022 | [10] -0.244 | [11] -0.088

RB1 (UniProt P06400)
active: [2] -0.378 | [3] -0.716 | [10] -0.241
inactive: bafetinib 0.006 | [1] 0.01 | nilotinib 0.015 | dasatinib 0.011 | [4] 0.082 | [5] 0.011 | tipifarnib 0.004 | mubritinib 0.046 | [6] 0.11 | [7] -0.133 | [8] -0.072 | [9] -0.01 | entinostat 0.015 | vorinostat 0.05 | citarinostat 0.039 | silmitasertib 0.039 | [11] -0.038

RAB1B (UniProt Q9H0U4)
inactive: bafetinib 0.011 | [1] -0.058 | nilotinib 0.003 | [2] 0.013 | dasatinib 0.025 | [3] -0.002 | [4] -0.017 | [5] 0.01 | tipifarnib 0.053 | mubritinib -0.01 | [6] -0.13 | [7] -0.098 | [8] -0.056 | [9] -0.039 | entinostat -0.035 | vorinostat -0.037 | citarinostat -0.061 | silmitasertib 0.079 | [10] -0.002 | [11] -0.061

RAF1 isoform 2 (UniProt P04049)
inactive: bafetinib -0.062 | [1] -0.168 | dasatinib -0.191 | [4] 0.181 | [5] -0.144 | tipifarnib -0.185 | mubritinib -0.286 | [6] -0.208 | [7] -0.012 | [8] 0.086 | [9] -0.017 | entinostat -0.033 | vorinostat 0.069 | citarinostat -0.037 | silmitasertib -0.033 | [10] -0.13 | [11] -0.133

RABGAP1L isoform 3 (UniProt Q5R372)
inactive: bafetinib -0.045 | [1] 0.024 | nilotinib -0.031 | [2] -0.001 | dasatinib -0.038 | [3] -0.037 | [4] -0.005 | [5] 0.013 | tipifarnib 0.016 | mubritinib -0.001 | [6] -0.012 | [7] -0.012 | [8] -0.05 | [9] 0.036 | entinostat 0.016 | vorinostat 0.025 | citarinostat 0.06 | silmitasertib 0.019 | [10] 0.073 | [11] -0.011

RAB3D (UniProt O95716)
inactive: bafetinib -0.142 | [1] -0.052 | nilotinib 0.01 | [2] 0.066 | dasatinib 0.221 | [3] -0.116 | [4] 0.075 | [5] -0.201 | tipifarnib 0.065 | mubritinib 0.285 | [7] 0.113 | [8] 0.032 | [9] -0.007 | vorinostat -0.126 | citarinostat 0.055 | silmitasertib 0.027 | [11] 0.051

RAD51D (UniProt O75771)
inactive: bafetinib 0.117 | [1] -0.174 | nilotinib 0.101 | [2] -0.127 | dasatinib -0.128 | [3] -0.035 | [4] 0.178 | [5] -0.12 | tipifarnib -0.107 | mubritinib 0.036 | [7] 0.04 | [8] -0.075 | [9] -0.293 | vorinostat 0.101 | citarinostat 0.044 | silmitasertib 0.032 | [11] 0.017

RAP1GAP isoform 4 (UniProt P47736)
inactive: bafetinib -0.015 | [1] -0.074 | nilotinib 0.018 | [2] -0.185 | dasatinib -0.035 | [3] -0.078 | [4] -0.049 | [5] 0.021 | tipifarnib -0.059 | mubritinib -0.195 | [6] 0.038 | [7] -0.137 | [8] -0.506 | [9] -0.063 | entinostat 0.073 | vorinostat 0.118 | silmitasertib -0.207 | [10] 0.019

RAB30 (UniProt Q15771)
inactive: bafetinib -0.081 | [1] 0.033 | nilotinib 0.039 | [2] -0.033 | dasatinib 0.022 | [3] -0.037 | [4] -0.151 | [5] -0.012 | tipifarnib -0.046 | mubritinib 0.059 | [7] -0.059 | [8] 0.004 | [9] 0.049 | vorinostat -0.139 | citarinostat 0.033 | silmitasertib -0.03 | [10] -0.014 | [11] -0.038

RABAC1 (UniProt Q9UI14)
inactive: bafetinib -0.087 | [1] -0.095 | nilotinib 0.018 | [2] -0.033 | dasatinib 0.197 | [3] -0.012 | [5] -0.048 | tipifarnib 0.093 | mubritinib -0.023 | [6] 0.061 | [7] 0.033 | [8] 0.052 | [9] 0.029 | entinostat 0.019 | vorinostat 0.206 | citarinostat 0.021 | silmitasertib 0.004 | [10] 0 | [11] -0.017
